According to article PMC10954452:
Where two headings read alike, the source gives them in different places. Results are given in words; binding and its absence hold for the method and conditions named. Binding seen in cells or lysates may run through a third protein. Some entries that bind do so weakly or less than the wild type. Blank lines part the entries; values can stand above or below the molecule they belong to.

Protein sequences, listed by entry. Tags and fused reporters are not part of them.
UniProt Q09472: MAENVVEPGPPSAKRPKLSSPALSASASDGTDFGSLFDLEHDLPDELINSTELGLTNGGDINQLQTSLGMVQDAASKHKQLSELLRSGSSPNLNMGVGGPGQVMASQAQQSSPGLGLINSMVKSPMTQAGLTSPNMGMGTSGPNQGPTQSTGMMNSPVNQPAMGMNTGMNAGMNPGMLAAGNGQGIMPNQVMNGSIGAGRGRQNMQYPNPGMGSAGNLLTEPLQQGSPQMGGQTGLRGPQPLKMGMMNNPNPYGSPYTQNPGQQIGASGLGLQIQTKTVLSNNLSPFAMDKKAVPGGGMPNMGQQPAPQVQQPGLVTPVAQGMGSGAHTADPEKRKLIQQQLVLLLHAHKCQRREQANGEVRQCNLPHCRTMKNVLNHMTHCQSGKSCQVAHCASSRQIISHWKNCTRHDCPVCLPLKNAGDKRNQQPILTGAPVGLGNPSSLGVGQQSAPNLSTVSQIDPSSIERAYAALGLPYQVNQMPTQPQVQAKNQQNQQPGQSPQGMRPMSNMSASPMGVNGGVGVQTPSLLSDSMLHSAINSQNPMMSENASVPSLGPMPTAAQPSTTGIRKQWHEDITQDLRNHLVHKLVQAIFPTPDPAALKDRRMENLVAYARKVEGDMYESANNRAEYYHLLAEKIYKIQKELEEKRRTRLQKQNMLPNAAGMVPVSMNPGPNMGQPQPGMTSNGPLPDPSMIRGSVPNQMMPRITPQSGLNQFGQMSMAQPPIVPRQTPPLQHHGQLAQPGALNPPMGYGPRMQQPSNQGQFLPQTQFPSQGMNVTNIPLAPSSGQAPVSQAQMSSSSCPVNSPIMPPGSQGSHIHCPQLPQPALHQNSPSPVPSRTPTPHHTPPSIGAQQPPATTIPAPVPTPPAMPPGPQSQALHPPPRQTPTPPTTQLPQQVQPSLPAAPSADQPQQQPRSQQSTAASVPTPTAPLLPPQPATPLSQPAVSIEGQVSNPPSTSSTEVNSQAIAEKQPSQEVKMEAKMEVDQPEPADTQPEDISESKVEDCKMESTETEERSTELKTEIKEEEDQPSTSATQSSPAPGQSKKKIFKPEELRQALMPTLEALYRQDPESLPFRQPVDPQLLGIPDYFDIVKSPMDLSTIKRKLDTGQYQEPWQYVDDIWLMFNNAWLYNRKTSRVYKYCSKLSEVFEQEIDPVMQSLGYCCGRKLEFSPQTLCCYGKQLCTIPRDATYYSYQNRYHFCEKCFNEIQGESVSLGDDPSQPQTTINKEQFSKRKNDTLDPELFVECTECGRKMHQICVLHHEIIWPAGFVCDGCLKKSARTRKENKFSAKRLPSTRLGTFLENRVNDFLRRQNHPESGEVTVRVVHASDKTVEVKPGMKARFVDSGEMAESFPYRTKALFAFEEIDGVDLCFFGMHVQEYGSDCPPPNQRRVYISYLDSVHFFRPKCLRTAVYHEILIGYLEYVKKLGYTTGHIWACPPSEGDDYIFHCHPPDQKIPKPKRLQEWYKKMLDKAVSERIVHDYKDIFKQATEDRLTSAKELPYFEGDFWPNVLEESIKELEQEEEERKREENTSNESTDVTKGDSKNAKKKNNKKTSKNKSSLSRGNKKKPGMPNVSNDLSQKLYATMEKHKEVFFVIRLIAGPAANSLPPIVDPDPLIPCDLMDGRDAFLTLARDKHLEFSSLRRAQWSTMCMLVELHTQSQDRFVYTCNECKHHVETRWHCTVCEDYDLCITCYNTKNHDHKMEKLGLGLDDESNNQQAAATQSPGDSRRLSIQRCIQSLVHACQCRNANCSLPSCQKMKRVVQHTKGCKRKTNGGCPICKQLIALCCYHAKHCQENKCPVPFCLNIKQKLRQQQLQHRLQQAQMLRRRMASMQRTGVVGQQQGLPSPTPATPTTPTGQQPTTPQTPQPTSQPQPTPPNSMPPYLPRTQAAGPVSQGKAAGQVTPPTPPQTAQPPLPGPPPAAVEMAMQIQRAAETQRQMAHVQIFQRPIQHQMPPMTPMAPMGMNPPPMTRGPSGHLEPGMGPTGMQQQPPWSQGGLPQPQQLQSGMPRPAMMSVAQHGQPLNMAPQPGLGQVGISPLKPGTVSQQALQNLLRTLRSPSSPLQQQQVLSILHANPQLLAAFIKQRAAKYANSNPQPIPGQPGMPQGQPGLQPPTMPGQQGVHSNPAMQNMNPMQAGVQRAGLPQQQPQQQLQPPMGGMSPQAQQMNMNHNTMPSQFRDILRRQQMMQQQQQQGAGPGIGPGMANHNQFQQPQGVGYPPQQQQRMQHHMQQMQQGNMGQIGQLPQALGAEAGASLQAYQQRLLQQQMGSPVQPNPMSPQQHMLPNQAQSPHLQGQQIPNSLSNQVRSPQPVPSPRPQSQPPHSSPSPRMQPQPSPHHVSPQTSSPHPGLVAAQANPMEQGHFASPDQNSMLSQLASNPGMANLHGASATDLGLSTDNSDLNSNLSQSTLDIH
UniProt Q92793: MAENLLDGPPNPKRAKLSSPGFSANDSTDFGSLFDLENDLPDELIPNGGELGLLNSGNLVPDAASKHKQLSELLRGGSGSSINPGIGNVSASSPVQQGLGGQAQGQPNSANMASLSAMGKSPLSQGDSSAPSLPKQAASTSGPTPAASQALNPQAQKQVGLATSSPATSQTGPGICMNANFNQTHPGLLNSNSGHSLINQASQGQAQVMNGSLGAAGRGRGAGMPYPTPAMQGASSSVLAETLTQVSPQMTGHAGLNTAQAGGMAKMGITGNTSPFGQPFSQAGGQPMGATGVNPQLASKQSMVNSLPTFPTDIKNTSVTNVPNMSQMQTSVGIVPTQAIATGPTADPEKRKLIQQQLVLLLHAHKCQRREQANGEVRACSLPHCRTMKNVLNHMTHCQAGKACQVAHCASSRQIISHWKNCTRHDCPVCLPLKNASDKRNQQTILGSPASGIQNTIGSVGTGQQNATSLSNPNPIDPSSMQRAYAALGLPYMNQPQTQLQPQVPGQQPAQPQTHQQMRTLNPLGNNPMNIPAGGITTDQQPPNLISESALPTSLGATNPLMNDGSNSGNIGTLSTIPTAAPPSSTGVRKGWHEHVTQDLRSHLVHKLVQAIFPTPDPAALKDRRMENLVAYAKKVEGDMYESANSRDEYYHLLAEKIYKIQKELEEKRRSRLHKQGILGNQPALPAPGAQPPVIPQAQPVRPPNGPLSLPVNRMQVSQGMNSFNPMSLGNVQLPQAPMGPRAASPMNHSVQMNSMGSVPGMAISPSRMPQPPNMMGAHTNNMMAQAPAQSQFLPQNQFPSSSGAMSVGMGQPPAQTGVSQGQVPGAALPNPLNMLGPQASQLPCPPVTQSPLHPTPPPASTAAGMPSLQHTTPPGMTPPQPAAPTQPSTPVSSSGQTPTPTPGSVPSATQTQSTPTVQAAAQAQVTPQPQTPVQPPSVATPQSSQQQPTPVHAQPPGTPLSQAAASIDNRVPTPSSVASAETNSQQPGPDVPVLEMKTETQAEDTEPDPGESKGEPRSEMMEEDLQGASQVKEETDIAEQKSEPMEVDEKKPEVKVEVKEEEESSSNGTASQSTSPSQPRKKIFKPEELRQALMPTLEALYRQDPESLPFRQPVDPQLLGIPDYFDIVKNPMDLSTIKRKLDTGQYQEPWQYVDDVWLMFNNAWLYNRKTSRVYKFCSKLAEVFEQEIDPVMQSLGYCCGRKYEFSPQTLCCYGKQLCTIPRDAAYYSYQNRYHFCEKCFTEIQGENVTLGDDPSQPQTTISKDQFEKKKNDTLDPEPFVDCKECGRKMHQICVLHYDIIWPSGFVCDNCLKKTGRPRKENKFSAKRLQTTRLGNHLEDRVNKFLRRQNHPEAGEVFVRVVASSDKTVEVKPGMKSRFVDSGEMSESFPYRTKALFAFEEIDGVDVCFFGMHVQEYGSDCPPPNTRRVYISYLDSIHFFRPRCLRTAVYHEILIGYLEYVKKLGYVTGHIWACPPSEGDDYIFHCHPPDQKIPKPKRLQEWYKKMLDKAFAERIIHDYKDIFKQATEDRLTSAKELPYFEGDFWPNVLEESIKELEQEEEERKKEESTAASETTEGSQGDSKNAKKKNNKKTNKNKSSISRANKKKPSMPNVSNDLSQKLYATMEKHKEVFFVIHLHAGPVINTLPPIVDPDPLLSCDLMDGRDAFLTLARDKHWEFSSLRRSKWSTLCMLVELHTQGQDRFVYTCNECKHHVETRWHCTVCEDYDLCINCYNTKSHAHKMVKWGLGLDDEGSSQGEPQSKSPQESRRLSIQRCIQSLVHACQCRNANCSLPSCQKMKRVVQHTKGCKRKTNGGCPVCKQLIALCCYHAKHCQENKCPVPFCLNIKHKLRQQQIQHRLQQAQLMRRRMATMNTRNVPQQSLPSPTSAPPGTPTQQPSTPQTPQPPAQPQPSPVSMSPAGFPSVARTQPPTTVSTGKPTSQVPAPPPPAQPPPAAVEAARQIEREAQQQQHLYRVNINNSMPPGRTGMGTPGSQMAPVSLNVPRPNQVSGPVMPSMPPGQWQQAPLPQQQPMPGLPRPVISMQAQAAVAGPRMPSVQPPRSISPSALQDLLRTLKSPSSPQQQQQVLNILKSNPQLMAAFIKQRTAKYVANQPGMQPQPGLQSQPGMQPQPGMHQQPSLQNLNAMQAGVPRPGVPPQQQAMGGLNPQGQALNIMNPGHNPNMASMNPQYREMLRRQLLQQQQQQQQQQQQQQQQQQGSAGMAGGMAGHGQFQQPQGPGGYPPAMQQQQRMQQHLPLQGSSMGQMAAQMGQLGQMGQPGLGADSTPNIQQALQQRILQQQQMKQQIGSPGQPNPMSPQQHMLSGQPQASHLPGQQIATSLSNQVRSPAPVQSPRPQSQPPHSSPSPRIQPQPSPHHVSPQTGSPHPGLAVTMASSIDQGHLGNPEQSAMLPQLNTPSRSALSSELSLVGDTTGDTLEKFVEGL
UniProt P12956: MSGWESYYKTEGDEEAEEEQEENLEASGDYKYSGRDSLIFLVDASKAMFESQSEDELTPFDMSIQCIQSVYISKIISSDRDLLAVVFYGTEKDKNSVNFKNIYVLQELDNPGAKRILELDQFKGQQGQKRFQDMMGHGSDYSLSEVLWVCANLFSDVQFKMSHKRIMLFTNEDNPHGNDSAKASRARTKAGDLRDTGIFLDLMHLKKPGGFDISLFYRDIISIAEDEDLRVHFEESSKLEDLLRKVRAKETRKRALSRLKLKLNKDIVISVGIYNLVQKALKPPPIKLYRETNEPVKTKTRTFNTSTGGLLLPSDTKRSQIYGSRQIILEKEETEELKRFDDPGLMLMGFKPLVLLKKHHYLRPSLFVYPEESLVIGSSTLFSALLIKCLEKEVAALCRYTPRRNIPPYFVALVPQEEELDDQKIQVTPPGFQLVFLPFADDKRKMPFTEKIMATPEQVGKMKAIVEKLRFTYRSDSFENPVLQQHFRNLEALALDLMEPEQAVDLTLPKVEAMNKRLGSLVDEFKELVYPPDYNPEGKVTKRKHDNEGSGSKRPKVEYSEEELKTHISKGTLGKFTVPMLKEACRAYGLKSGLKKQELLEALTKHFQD

Tests used:
[1] = target: K226 acetylated polynucleotide kinase 3'-phosphatase (AcK226 PNKP), from WT-PNKP-FLAG cells (human) (UniProt Q96T60); assay: co-IP; IP with 10 ug rabbit polyclonal anti-AcK226 Ab (control rabbit IgG) from benzonase-treated chromatin fraction of WT-PNKP-FLAG HEK293 cells, mock or Bleo-treated; immunocomplex probed by Western blot
[2] = target: K142 acetylated polynucleotide kinase 3'-phosphatase (AcK142 PNKP), from WT-PNKP-FLAG cells (human) (UniProt Q96T60); assay: co-IP; IP with 10 ug rabbit polyclonal anti-AcK142 Ab (control rabbit IgG) from benzonase-treated chromatin fraction of WT-PNKP-FLAG HEK293 cells, mock or GO-treated; immunocomplex probed by Western blot
[3] = target: K226 acetylated polynucleotide kinase 3'-phosphatase (AcK226 PNKP), from WT-PNKP-FLAG cells (human) (UniProt Q96T60); assay: co-IP; IP with 10 ug rabbit polyclonal anti-AcK226 Ab (control rabbit IgG) from benzonase-treated chromatin fraction of WT-PNKP-FLAG HEK293 cells, mock or Bleo-treated; immunocomplex probed by Western blot; remark: listed apart in the source

Molecule: p300 (from UniProt Q09472 1-2414) (enzyme)
binding [2]: binds

B1: DNA polymerase eta (Pol η) (enzyme, UniProt Q9Y253 1-713)
chain: MATGQDRVVALVDMDCFFVQVEQRQNPHLRNKPCAVVQYKSWKGGGIIAVSYEARAFGVTRSMWADDAKKLCPDLLLAQVRESRGKANLTKYREASVEVMEIMSRFAVIERASIDEAYVDLTSAVQERLQKLQGQPISADLLPSTYIEGLPQGPTTAEETVQKEGMRKQGLFQWLDSLQIDNLTSPDLQLTVGAVIVEEMRAAIERETGFQCSAGISHNKVLAKLACGLNKPNRQTLVSHGSVPQLFSQMPIRKIRSLGGKLGASVIEILGIEYMGELTQFTESQLQSHFGEKNGSWLYAMCRGIEHDPVKPRQLPKTIGCSKNFPGKTALATREQVQWWLLQLAQELEERLTKDRNDNDRVATQLVVSIRVQGDKRLSSLRRCCALTRYDAHKMSHDAFTVIKNCNTSGIQTEWSPPLTMLFLCATKFSASAPSSSTDITSFLSSDPSSLPKVPVTSSEAKTQGSGPAVTATKKATTSLESFFQKAAERQKVKEASLSSLTAPTQAPMSNSPSKPSLPFQTSQSTGTEPFFKQKSLLLKQKQLNNSSVSSPQQNPWSNCKALPNSLPTEYPGCVPVCEGVSKLEESSKATPAEMDLAHNSQSMHASSASKSVLEVTQKATPNPSLLAAEDQVPCEKCGSLVPVWDMPEHMDYHFALELQKSFLQPHSSNPQVVSAVSHQGKRNPKSPLACTNKRPRPEGMQTLESFFKPLTH
binding [3]: binds

More lines, now with the values ahead:

binding [1]: binds
Molecule: CREB-binding protein (CBP) (from UniProt Q92793 1-2442) (enzyme)

binding [2]: binds
binding [1]: binds
Molecule: Ku70 (from UniProt P12956 1-609)
